## Library screen at single concentrations

Protein sequences, listed by entry. Tags and fused reporters are not part of them. Residues count along the entry.
UniProt I6X8D2, whole entry: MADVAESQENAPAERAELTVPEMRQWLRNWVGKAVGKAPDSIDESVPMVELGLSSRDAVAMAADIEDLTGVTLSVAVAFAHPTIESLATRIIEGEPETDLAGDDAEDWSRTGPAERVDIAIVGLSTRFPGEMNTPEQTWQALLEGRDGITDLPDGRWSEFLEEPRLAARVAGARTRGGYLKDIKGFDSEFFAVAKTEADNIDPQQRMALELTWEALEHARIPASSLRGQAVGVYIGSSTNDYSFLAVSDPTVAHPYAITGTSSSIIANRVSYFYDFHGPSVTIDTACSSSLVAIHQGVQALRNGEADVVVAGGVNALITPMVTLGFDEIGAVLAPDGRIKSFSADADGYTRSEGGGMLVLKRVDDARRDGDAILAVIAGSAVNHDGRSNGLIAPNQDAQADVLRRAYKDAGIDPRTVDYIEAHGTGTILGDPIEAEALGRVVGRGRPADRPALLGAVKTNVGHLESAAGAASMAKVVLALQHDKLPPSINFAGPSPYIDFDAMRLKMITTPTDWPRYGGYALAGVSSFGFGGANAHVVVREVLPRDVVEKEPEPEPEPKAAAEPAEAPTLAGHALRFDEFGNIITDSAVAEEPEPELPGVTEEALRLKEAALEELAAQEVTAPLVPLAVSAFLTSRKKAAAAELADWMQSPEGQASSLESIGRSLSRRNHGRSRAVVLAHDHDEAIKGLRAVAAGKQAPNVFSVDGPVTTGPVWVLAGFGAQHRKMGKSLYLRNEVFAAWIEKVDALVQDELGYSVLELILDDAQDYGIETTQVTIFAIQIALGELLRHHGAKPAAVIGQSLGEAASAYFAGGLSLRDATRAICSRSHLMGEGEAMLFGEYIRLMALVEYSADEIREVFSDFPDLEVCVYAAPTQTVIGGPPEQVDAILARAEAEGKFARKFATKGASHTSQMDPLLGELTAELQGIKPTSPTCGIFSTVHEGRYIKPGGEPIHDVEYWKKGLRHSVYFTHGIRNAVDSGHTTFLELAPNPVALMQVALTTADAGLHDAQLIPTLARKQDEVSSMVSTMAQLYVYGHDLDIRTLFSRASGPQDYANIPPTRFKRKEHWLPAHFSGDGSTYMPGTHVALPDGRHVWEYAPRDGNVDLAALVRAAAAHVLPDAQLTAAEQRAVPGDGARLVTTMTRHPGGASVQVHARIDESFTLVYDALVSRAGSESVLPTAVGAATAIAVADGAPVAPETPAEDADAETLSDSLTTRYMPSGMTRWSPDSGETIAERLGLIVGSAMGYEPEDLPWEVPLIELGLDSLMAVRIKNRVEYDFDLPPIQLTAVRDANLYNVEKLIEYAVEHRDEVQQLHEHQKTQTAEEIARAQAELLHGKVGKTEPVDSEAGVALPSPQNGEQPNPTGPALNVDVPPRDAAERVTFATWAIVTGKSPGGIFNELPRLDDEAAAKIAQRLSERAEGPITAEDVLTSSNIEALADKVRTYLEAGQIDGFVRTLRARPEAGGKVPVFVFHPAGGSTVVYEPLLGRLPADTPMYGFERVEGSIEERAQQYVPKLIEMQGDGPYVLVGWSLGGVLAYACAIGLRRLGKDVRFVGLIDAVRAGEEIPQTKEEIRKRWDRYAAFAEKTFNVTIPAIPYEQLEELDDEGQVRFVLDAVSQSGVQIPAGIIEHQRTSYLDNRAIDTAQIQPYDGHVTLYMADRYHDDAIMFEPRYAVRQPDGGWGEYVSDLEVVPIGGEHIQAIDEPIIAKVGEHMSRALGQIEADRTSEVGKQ
UniProt Q8IDJ8, 1-583: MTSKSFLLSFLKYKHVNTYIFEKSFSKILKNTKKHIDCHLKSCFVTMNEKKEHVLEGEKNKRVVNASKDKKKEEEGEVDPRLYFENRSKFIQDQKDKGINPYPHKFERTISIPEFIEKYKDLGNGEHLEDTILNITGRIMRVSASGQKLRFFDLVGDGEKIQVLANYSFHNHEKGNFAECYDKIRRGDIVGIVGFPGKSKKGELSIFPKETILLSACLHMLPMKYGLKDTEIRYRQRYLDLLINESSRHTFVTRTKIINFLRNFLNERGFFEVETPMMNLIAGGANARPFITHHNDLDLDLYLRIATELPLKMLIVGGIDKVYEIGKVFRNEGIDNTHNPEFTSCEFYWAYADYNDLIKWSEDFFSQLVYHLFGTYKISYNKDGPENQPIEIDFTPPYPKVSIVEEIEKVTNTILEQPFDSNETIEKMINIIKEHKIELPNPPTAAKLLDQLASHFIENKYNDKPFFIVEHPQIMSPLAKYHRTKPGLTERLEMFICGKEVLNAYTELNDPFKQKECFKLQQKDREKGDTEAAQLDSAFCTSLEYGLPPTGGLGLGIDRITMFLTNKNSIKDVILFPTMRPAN
UniProt P9WNZ1, whole entry: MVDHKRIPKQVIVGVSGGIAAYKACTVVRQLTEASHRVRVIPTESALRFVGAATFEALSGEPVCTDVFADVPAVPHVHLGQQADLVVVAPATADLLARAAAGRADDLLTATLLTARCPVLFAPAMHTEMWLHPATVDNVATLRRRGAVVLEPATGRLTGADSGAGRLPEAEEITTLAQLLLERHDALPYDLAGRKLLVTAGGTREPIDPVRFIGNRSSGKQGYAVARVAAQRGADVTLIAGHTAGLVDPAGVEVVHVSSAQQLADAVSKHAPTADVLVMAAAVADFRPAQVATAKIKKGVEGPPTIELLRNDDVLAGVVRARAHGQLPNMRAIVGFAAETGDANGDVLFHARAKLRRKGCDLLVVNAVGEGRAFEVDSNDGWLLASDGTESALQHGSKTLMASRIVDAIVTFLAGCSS

Pks13 thioesterase: 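Polyketide synthase Pks13, Mycobacterium tuberculosis (UniProt I6X8D2). Enzyme assay of the thioesterase domain of polyketide synthase 13; the read-out is not stated. Concentration: 30 µM. The record gives no direction; the compounds picked for IC50 retests had high values, so higher reads as stronger inhibition. Size under these conditions: about 67,000 compounds, about 300 of them at 50% or above in at least one test.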
PfKRS1: 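Enzyme assay of the cytosolic lysyl-tRNA synthetase in 384-well plates, read by luminescence. Target: Lysine-tRNA ligase, Plasmodium falciparum 3D7 (UniProt Q8IDJ8). Concentration: 30 µM. Direction is inferred from only a few compounds that gave an IC50; most scored high, so higher reads as stronger inhibition. Of about 69,000 compounds tested this way, about 49 (0.071%) reached 50% or more in at least one test.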
CoaBC: 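Coenzyme A biosynthesis protein CoaBC, Mycobacterium tuberculosis (UniProt P9WNZ1). Enzyme assay of CoaBC with a phosphate dye (Biomol Green) read at 650 nm. Compounds at 30 µM. Higher reads as stronger inhibition, judged from the few compounds that gave an IC50. Most strong results did not repeat in a second test. Of about 67,000 compounds tested this way, about 40 (0.06%) reached 50% or more in at least one test.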

Values are the deposited “Percent Effect”, in %.
How 0% and 100% were set is not recorded. Most values in the screen are low, and negative values occur.
Compounds were drawn at random from those tested, without regard to their results.
Two or more numbers in one place are separate tests of the same structure; such repeats can differ widely.
A dash means the value is not listed here; it may have been measured.

| # | compound | Pks13 thioesterase | PfKRS1 | CoaBC |
|---|---|---|---|---|
| 1 | `Cc1nn(C)cc1-c1cc(C(=O)NCC(C)(C)c2cccc(F)c2)n[nH]1` | -24.33% | 1.139% | 2.871% |
| 2 | `O=C(NCCC(O)c1ccoc1)Nc1cccs1` (configuration not stated) | -6.329% | 1.156% | 0.2421% |
| 3 | `COCCC(=O)N1CCC2(CCN(Cc3cccc(F)c3)CC2)CC1` | -208.6% | 2.117% | 3.337% |
| 4 | `COc1ccc(C2=CCN(C(=O)C3CC(=O)N(C4CC4)C3)CC2)cc1` (configuration not stated) | 4.435% | 4.524% | 4.841% |
| 5 | `CC(=O)N1CCCC(C(=O)NCCc2csc(-c3ccncc3)n2)C1` (configuration not stated) | -13.41% | 5.984% | 4.315% |
| 6 | `O=C(Nc1ncnc2c1CCC2)c1ccc2c(c1)OCO2` | -15.96% | 6.303% | 1.235% |
| 7 | `CCCn1nc(-c2nc(Cc3ccc(OC)cc3)no2)ccc1=O` | -4.978% | 6.109% | -2.161% |
| 8 | `CC(C)n1nc(CN(C)C)c2c1CN(CC1CC1)CC2` | -40.61% | 8.239% | - |
| 9 | `COCCO[C@H]1CCN(c2ccc(C)nn2)[C@H]1Cc1cnn(C)c1` | -5.106% | -0.6686% | 3.765% |
| 10 | `COC(=O)CC(NC(=O)CCn1cccn1)c1ccc(C)cc1` (configuration not stated) | -0.4931% | -0.8652% | 0.7371% |
| 11 | `CCOC(=O)c1n[nH]cc1-c1cncn1CCn1nc(C)c(C)c1C` | 0.8637% | 2.75% | -0.1236% |
| 12 | `Cn1nccc1C(=O)NCCN1CCC(O)(c2ccc(F)cc2)CC1` | -15.4% | 2.646% | -18.74% |
| 13 | `Cc1cnn(CC2CCN(CC(O)c3ccccc3Cl)CC2)c1` (configuration not stated) | -33.45% | 5.202% | 0.6452% |
| 14 | `CC(=O)Nc1nc(CS(=O)(=O)CCCc2ccccc2)cs1` | -4.847% | 4.734% | 2.785% |
| 15 | `CCc1nc(NS(=O)(=O)c2cccc(F)c2C)no1` | -11.19% | -2.314% | 22.14% & 1.546% |
| 16 | `NCC1CCCCN1C(=O)Cc1ccc(F)c(F)c1` (configuration not stated) | -4.538% | 4.903% | -6.483% |
| 17 | `O=C(NCCC(=O)N1CCCCCCC1)c1ccoc1` | -15.52% | 1.568% | -32.17% |
| 18 | `Cc1ccccc1-c1cncc(C2CCN(C3CCOCC3)CC2)n1` | 3.913% | 1.768% | 1.961% |
| 19 | `Cc1noc(C)c1CCC(=O)N1CCCN(C)CC1` | -10.44% | -0.2842% | 4.436% |
| 20 | `COc1ccc(-c2nccnc2C2CCN(C(C)=O)CC2)cc1` | 8.789% | 2.021% | 2.222% |
| 21 | `O=c1c2cccnc2cnn1CC(O)c1cccc(C(F)(F)F)c1` (configuration not stated) | 8.242% | -2.332% | 5.295% |
| 22 | `Clc1cccnc1N1CCC(NCc2cccc3cn[nH]c23)C1` (configuration not stated) | -19.73% | 3.201% | 1.992% |
| 23 | `CC1(C)OCC(CNC(=O)c2cnn(-c3cc(Cl)ccc3Cl)c2N)O1` (configuration not stated) | -5.143% | 4.642% | 10.08% |
| 24 | `CN(Cc1cnn(C)c1)C(=O)Nc1cccnc1-n1cccn1` | -2.061% | 3.173% | -0.1988% |
| 25 | `COc1cccc(S(=O)(=O)CCN2CCN(CCO)CC2)c1` | -26.29% | 7.478% | 2.622% |
| 26 | `CC(C)c1cc(C(=O)N2CCCC(Cn3cc(CO)nn3)C2)on1` (configuration not stated) | -4.646% | 0.5312% | -0.1233% |
| 27 | `COCc1cncc2c1CCN(Cc1ccccn1)C2` | 2.044% | 13.16% | 1.449% |
| 28 | `c1cc2nccc(CC3CCCN(Cc4ncc[nH]4)CC3)c2cn1` (configuration not stated) | -43.56% | 0.9645% | -1.667% |
| 29 | `Cc1n[nH]c(C)c1CN1CC[C@@H]2[C@@H](CCC(=O)N2CCc2c[nH]cn2)C1` | - | 5.975% | -3.758% |
| 30 | `CN(C(=O)CCNC(=O)C1COc2ccccc21)c1ccccc1` (configuration not stated) | -4.834% | -4.114% | 0.9828% |
| 31 | `COCCNC(=O)[C@H]1CN(c2ncccn2)C[C@H]2OCC[C@@H]12` | -11.5% | -3.669% | 5.838% |
| 32 | `Cc1nn(C)c(C)c1CC(=O)N1CCCC(n2cccn2)C1` (configuration not stated) | -9.686% | -0.6942% | 6.845% |
| 33 | `Cc1nccn1CC1CCN(C(=O)c2ccccc2)CC1` | -9.817% | -0.4501% | -1.272% |
| 34 | `COc1cc(NC(=O)N(C)CCC2CC2)ncn1` | -3.762% | 1.554% | -2.871% |
| 35 | `Cc1cc(NC(=O)CN2CCCC2Cn2nc(C)nc2C)n(C)n1` (configuration not stated) | -5.971% | 0.8467% | -0.3911% |
| 36 | `CCC(=O)N1CCCC1c1ccsc1` (configuration not stated) | 4.234% | 5.243% | -1.531% |
| 37 | `NC(=O)COc1ccc(C2NC(=O)CN2Cc2ccc(Br)cc2)cc1` (configuration not stated) | 8.574% | 0.2017% | 2.67% |
| 38 | `CC(=O)NC[C@]1(O)CCN(C(=O)c2ccc3c(c2)CCC3)C[C@H]1O` | 5.395% | 1.949% | 2.427% |
| 39 | `Cc1ccc(-n2c(SCC(=O)O)nnc2-c2ccccc2)cc1` | -1.504% | 4.206% | -0.3717% |
| 40 | `CC/C=C(/C)C(=O)N1CSCC1C(=O)NC1=NCCS1` (configuration not stated) | -12.72% | 2.328% | 5.579% |
| 41 | `Cc1nccc(N[C@H]2CN(CCC(=O)NC3CCCC3)C[C@@H]2C2CC2)n1` | 7.871% | -3.273% | 1.535% |
| 42 | `COCC(NC1CSCCSC1)c1ccnn1C` (configuration not stated) | -9.551% | 1.718% | -1.607% |
| 43 | `CCSCCC(=O)NCc1cnn(-c2ccc(F)cc2F)c1` | 3.068% | -1.893% | 3.187% |
| 44 | `Cn1nnc2c1CCN(S(C)(=O)=O)C2COCc1ccccc1` (configuration not stated) | - | -2.797% | -2.843% |
| 45 | `CSCc1ccc(C(=O)NCCCNc2ccc(C(F)(F)F)cn2)cc1` | 17.47% | -1.174% | 5.371% |
| 46 | `CCN1CCCC(O)(c2nc(C)c(CCOc3ccccc3F)s2)CC1` (configuration not stated) | -7.083% | 1.489% | 4.574% |
| 47 | `CC(C)C(=O)N1CCCC12CCN(C(=O)c1ccno1)C2` (configuration not stated) | -23.03% | -1.186% | -3.87% |
| 48 | `O=C(c1ccnnc1)N1C[C@H](OCc2ccccn2)[C@H]2COC[C@H]21` | -10.81% | 6.146% | 2.941% |
| 49 | `CN(C)CCN(C)c1cc(N2CCN(c3ccccn3)CC2)ncn1` | 8.982% | 2.772% | 4.369% |
| 50 | `OCC(CO)Nc1ccc2c(Cl)ccc(Cl)c2n1` | -0.5974% | 3.556% | 2.037% |
| 51 | `COc1cccc(C2C3=C(COC3=O)Nc3[nH]nc(C)c32)c1O` (configuration not stated) | -46.77% | 4.483% | 12.63% |
| 52 | `CCc1nc(C)ncc1C(=O)N1CCCC(n2nc(C)nc2C)C1` (configuration not stated) | -1.738% | 2.579% | 3.627% |
| 53 | `CCN(CCC(=O)OC)C(=O)c1cc(F)cc2[nH]cnc12` | -16.08% | 4.074% | -2.886% |
| 54 | `CC(=O)NC1Cc2ccc(S(=O)(=O)NCCNc3ccccn3)cc2C1` (configuration not stated) | -1.014% | -1.591% | -1.699% |
| 55 | `Cc1ccc(-c2nc(CN3CCOC(Cn4cccn4)C3)no2)cc1` (configuration not stated) | -8.041% | -0.4078% | 4.199% |
| 56 | `CN(C)Cc1nnn2c1CN(Cc1cccnc1)CCC2` | 13.37% | -4.111% | 1.408% |
| 57 | `COCCN1C(=O)CO[C@H]2CN(S(=O)(=O)c3ccccc3)C[C@H]21` | -42.9% | 6.91% | 3.837% |
| 58 | `O=C(c1cc(Cl)cc2cccnc12)N1CCN(CCO)CC1` | -21.01% | 2.269% | 1.053% |
| 59 | `c1ccc(Cc2nc(CN3CCCC3Cn3cncn3)cs2)cc1` (configuration not stated) | -7.212% | -0.4999% | 5.249% |
| 60 | `CCc1csc(C2CCCN(C(=O)c3ccc4c(c3)OCO4)C2)n1` (configuration not stated) | 1.789% | 2.998% | 5.684% |
| 61 | `COc1ccc(CN2CCC3(CC2)CCN(c2cnn(C)c2)C3=O)cc1` | -5.965% | 3.882% | 7.099% |
| 62 | `COc1ccccc1-n1c(O)cc(C)c(C#N)c1=O` | 3.918% | 5.33% | -1.965% |
| 63 | `COC[C@H]1CC[C@H]2[C@H](CCN2S(=O)(=O)Cc2ccccc2)O1` | -18.6% | -3.582% | 9.98% |
| 64 | `CC(=O)Nc1nc(-c2ccccc2)c[nH]1` | -1.586% | -0.7964% | 0.1255% |
| 65 | `Cc1noc(C)c1-c1nc(C2CCCN(C(=O)CN)C2)ccc1CO` (configuration not stated) | -11.01% | -0.1959% | 4.338% |

5 of the entries, repeated:

With CN(Cc1cnn(C)c1)C(=O)Nc1cccnc1-n1cccn1 the screen gave Pks13 thioesterase: -2.061%; PfKRS1: 3.173%; CoaBC: -0.1988%.
With CC(C)c1cc(C(=O)N2CCCC(Cn3cc(CO)nn3)C2)on1 (configuration not stated) the screen gave Pks13 thioesterase: -4.646%; PfKRS1: 0.5312%; CoaBC: -0.1233%.
With COCc1cncc2c1CCN(Cc1ccccn1)C2 the screen gave Pks13 thioesterase: 2.044%; PfKRS1: 13.16%; CoaBC: 1.449%.
With COc1cccc(C2C3=C(COC3=O)Nc3[nH]nc(C)c32)c1O (configuration not stated) the screen gave Pks13 thioesterase: -46.77%; PfKRS1: 4.483%; CoaBC: 12.63%.
With CN(C)Cc1nnn2c1CN(Cc1cccnc1)CCC2 the screen gave Pks13 thioesterase: 13.37%; PfKRS1: -4.111%; CoaBC: 1.408%.

Data taken from ChEMBL document CHEMBL3988442, “University of Dundee, Small-Polar-MMV Screening Library” (2021).